Experimental data reported in publication PMC6450910.
No constants are given. Whether binding was seen depends on the method and setting. Binding seen in cells or lysates may run through a third protein. Some binding calls cover weakened binding; strength is not graded here. For some assays here: Tags and fused reporters may be left off the sequences shown.

Amino acid sequences for entries named in this document (tags omitted). Residues count along the entry.
UniProt P34741, residues 19-201: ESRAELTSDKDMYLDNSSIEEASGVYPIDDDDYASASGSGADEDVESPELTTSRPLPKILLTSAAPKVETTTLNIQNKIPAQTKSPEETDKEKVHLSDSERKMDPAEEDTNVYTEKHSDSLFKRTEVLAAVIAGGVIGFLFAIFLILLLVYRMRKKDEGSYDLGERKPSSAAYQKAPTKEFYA
UniProt P35918, residues 20-1345: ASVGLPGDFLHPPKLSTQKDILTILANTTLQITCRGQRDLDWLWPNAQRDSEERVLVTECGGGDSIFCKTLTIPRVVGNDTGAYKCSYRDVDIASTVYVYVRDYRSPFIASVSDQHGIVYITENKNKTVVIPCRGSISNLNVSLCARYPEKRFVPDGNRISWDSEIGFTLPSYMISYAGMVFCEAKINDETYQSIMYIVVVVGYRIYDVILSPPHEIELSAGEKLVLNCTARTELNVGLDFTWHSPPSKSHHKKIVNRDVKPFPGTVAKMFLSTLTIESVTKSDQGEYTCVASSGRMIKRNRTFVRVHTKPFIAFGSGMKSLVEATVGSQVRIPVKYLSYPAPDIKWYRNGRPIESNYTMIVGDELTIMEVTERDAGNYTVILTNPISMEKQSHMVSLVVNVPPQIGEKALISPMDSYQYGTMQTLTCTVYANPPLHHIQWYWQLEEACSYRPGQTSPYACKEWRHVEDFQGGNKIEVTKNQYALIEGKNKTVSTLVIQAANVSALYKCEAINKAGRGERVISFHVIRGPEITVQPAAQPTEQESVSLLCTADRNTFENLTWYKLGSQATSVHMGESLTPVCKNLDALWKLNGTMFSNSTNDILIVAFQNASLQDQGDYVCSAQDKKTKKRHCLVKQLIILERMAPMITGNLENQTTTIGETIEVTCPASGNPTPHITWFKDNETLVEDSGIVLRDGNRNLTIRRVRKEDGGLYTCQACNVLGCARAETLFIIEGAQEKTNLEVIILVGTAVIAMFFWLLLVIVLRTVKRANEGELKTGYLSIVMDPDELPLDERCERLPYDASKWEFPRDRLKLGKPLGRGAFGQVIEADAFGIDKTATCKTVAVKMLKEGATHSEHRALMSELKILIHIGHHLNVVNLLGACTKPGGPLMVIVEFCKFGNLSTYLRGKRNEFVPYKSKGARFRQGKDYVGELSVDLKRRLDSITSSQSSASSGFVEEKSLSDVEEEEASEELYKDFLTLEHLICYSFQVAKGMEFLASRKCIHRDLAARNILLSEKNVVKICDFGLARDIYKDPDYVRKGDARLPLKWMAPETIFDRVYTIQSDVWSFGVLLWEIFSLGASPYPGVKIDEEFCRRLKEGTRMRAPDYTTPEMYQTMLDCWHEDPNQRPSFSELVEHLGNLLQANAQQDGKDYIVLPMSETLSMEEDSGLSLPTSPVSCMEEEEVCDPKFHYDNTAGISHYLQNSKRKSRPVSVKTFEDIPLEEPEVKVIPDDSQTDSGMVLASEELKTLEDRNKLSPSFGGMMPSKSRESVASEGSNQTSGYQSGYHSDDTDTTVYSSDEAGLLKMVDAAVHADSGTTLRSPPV
UniProt O00560: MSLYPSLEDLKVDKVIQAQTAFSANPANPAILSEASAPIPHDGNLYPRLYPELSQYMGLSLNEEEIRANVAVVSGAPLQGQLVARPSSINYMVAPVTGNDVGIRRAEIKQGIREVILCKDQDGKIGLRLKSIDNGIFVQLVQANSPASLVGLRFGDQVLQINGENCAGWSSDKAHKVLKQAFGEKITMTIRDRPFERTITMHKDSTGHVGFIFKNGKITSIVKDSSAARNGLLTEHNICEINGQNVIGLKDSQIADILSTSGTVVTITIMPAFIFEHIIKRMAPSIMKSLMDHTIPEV

Key:
[1] = biological target: HA-tagged wild-type Syndecan-2 (Ad-Sdc2) (UniProt P34741); assay: co-IP; as a1, Sdc2-/- primary mouse ECs, without VEGFA165 stimulation; anti-HA magnetic beads 2 h at 4 °C; western blot
[2] = biological target: T1, Sdc4^D1/Sdc2^D2 chimera (Sdc2 with its D1 region replaced by Sdc4 D1) (UniProt P31431); assay: co-IP; Sdc2-/- primary mouse ECs transduced 16 h with adenovirus (MOI 1-2), starved 8 h, stimulated with VEGFA165 (50 ng/ml) 5 min; 1% Triton lysis buffer; anti-HA magnetic beads 2 h at 4 °C; western blot
T1 sequence: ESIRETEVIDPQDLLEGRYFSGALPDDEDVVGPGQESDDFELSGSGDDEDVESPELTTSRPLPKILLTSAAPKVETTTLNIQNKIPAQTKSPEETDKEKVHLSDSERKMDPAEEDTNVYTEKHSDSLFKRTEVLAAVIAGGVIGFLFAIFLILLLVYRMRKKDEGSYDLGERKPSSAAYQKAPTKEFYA

[3] = biological target: HA-tagged wild-type Syndecan-2 (Ad-Sdc2) (UniProt P34741); assay: co-IP; as a1, Sdc2-/- primary mouse ECs, without VEGFA165 stimulation; anti-HA magnetic beads 2 h at 4 °C; western blot; remark: listed apart in the source
[4] = biological target: T2, HA-tagged wild-type Syndecan-4 (Ad-Sdc4) (UniProt P31431); assay: co-IP; mouse endothelial cell line MS1, VEGFA165 stimulation (Supplementary Figure 6f)
T2 sequence: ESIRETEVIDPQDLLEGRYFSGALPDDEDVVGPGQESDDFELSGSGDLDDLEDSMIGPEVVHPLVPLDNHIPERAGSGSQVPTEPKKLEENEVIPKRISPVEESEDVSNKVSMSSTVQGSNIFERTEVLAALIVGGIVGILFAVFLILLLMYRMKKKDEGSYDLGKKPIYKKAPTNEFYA

[5] = biological target: HA-tagged wild-type Syndecan-2 (Ad-Sdc2) (UniProt P34741); assay: co-IP; HUVEC transduced 16 h with adenovirus (MOI 1-2), starved 8 h, stimulated with VEGFA165 (50 ng/ml) 5 min (panels with or without VEGFA165); 1% Triton lysis buffer; anti-HA magnetic beads 2 h at 4 °C; western blot

Row | binding [1] | binding [2] | binding [3] | binding [4] | binding [5] | Substance
1 | binds weakly | no binding | no binding (condition: without VEGFA165) | no binding | – | VEGFR2 (mouse, endogenous) (from UniProt P35918 20-1345) (receptor)
2 | – | – | – | – | binds | syntenin (human, endogenous) (from UniProt O00560 1-298)
